Results: publication PMC7819943, “Rice protein-binding microarrays: a tool to detect cis-acting elements near promoter regions in rice”
This is one part of the list.

Sequences of proteins named here, by UniProt entry; tags and fusion partners are left off.
UniProt Q0JBA9, entry or part of it: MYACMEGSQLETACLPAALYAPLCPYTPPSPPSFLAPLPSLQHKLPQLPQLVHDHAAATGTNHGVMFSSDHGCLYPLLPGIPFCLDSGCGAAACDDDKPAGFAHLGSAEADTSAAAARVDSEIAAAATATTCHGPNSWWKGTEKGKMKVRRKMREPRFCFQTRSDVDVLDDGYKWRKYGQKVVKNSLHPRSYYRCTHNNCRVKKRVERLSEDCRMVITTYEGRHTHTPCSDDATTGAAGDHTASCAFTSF

Molecular target: OsWRKY34 (Oryza sativa, UniProt Q0JBA9 1-250)
Assay: protein-binding microarray (RPBM); PBS, 2% BSA, 51.3 ng/ul salmon testes DNA, 50 uM zinc acetate, 200 nM TF, 25 C, 1 h; high values mean tight binding
Conditions: protein: recombinant; tags: N-terminal polyhistidine and DsRed monomer fusion (pET32a); label: CyDye5-dUTP incorporated in the synthesized complementary strand; 3' TTTTT single-stranded linker to array surface; dsDNA, one strand shown
Summary of the method: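 Using Ni–NTA, transcription factors fused N-terminally to polyhistidine and DsRed were purified after expression in E. coli BL21-CodonPlus. These were incubated at 200 nM with a blocked, double-stranded custom Agilent array for 1 h at 25 °C in a buffer containing 50 µM zinc acetate, and the array was washed. The binding signal is per-feature fluorescence intensity (arbitrary units) on an Axon 4000B scanner.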

Sequence | binding signal
CCACCGTCGTCGGCTCTGTGACCATCGCCGTTTCTTCGACCGGAGTCACCTAGTGCAG | 8970 fluorescence intensity (a.u.)
GGTTTGACTCTATTTTTCCTTTAGTATGGTGTCTGCTCTCCGGAGTCACCTAGTGCAG | 8280 fluorescence intensity (a.u.)
TGGTTGTGTTTAGTTTCAGAATTTTTCTTCAAACTTCTAACGGAGTCACCTAGTGCAG | 9220 fluorescence intensity (a.u.)
ACCCTTTTTTTTCGCATGATAGCTACATACAACTTATATACGGAGTCACCTAGTGCAG | 8580 fluorescence intensity (a.u.)
GCCACTGCCCTGCTGCCTCACCTCAACCTCTCATTGCCGTCGGAGTCACCTAGTGCAG | 12000 fluorescence intensity (a.u.)
AATATGGTTCTCTAGGTATCTTTTTAATGATGGTAAAATTCGGAGTCACCTAGTGCAG | 8720 fluorescence intensity (a.u.)
GGCCCAATACCACATGTGACATCTCAGCCCACTAGGCCCACGGAGTCACCTAGTGCAG | 8420 fluorescence intensity (a.u.)
TCCAAACGATTATTCCTACCGTTTTTATGTGTTTTCTTACCGGAGTCACCTAGTGCAG | 10300 fluorescence intensity (a.u.)
TACTACTTCAGTTCTCGCTCGTTCTTATCCTCCTCTGCCACGGAGTCACCTAGTGCAG | 8650 fluorescence intensity (a.u.)
CGGCCCAGGTGGGAGAGGAGGGGAGGGGAGGGGAGGGATGCGGAGTCACCTAGTGCAG | 19800 fluorescence intensity (a.u.)
TCAAGGAACAATTCATCGCCCTTTGTTCTTACCCCAACATCGGAGTCACCTAGTGCAG | 8100 fluorescence intensity (a.u.)
TGTGGACAAATCATTCGGGGTGACATTTGTGTGTTCTTGTCGGAGTCACCTAGTGCAG | 8080 fluorescence intensity (a.u.)
CATGGCTCATGTGTAATTGATCTGTTTGATGGGCTACTATCGGAGTCACCTAGTGCAG | 8150 fluorescence intensity (a.u.)
ACTTTTGGACATGCTTTATCCATAACCCCGACAATACTCACGGAGTCACCTAGTGCAG | 8610 fluorescence intensity (a.u.)
CTCGGCTGGTTCGCCTCCTACTCTACGCTTGCTGCTGCAGCGGAGTCACCTAGTGCAG | 9320 fluorescence intensity (a.u.)
CCACGCCACGCCCACGCCCACGCCCACGCCCACGCCTCGCCGGAGTCACCTAGTGCAG | 9070 fluorescence intensity (a.u.)
CGTGTACACCCAACACGAGGCCCGTTTTCTCAGCCCTAGTCGGAGTCACCTAGTGCAG | 8440 fluorescence intensity (a.u.)
AGGGGTGTCCTTGTCTTTCGCCATTTTCTCTCTCGCTCGGCGGAGTCACCTAGTGCAG | 10200 fluorescence intensity (a.u.)
CGTTTTTCTTCTCACCTCTTCTCTCTTATTCACATGTGTGCGGAGTCACCTAGTGCAG | 8990 fluorescence intensity (a.u.)
CCAGGAGGGTGAGCTTGATGCAGGGGCGGGTGCGGGCGAGCGGAGTCACCTAGTGCAG | 12500 fluorescence intensity (a.u.)
ATGTGTTTGGTTGAGAGGCTAGAAGGGATGGGATGGTTCACGGAGTCACCTAGTGCAG | 10300 fluorescence intensity (a.u.)

A second format for part of the listing above:
Sequence	binding signal
CATGGCTCATGTGTAATTGATCTGTTTGATGGGCTACTATCGGAGTCACCTAGTGCAG	8150 fluorescence intensity (a.u.)
CGTGTACACCCAACACGAGGCCCGTTTTCTCAGCCCTAGTCGGAGTCACCTAGTGCAG	8440 fluorescence intensity (a.u.)

(next part)

Sequence | binding signal
CTTGCTTGATTTGCCTCGCCTGCCCTTTTTCTCGCGCGGCCGGAGTCACCTAGTGCAG | 9260 fluorescence intensity (a.u.)
TTCTCCTCGCGTTATCCTTCGCCTCCGCCGCGATGCTCTCCGGAGTCACCTAGTGCAG | 12200 fluorescence intensity (a.u.)
AGTAGCATTGCCCATTAGCACTAAGTACAATTAGTGAATTCGGAGTCACCTAGTGCAG | 8200 fluorescence intensity (a.u.)
GTTAAGGGGTATTTCTGTCTTTTTGCGTTGTACTCTTCTCCGGAGTCACCTAGTGCAG | 10500 fluorescence intensity (a.u.)
AAACCCAACATTGTAACCCTGCATTGCACATCACAGAAACCGGAGTCACCTAGTGCAG | 9520 fluorescence intensity (a.u.)
ACAAGGATGGGAATGAAGTGGGCTGTGATTGTGAGTTTGTCGGAGTCACCTAGTGCAG | 8770 fluorescence intensity (a.u.)
GCTTATTCACTAGATTATTGCTGCGGGTTATATACTCCGTCGGAGTCACCTAGTGCAG | 10100 fluorescence intensity (a.u.)
TTCCTTCAGTATCAATGGGCCTTTGTTTTTTACTCACTCCCGGAGTCACCTAGTGCAG | 8730 fluorescence intensity (a.u.)
TTTTATGTGTAAAATATTTTCACCGTGTTATATATGTTCACGGAGTCACCTAGTGCAG | 10300 fluorescence intensity (a.u.)
TTATTTGTTCATCCGCGTTGTAGTTCAGTGCCGTCTCCTTCGGAGTCACCTAGTGCAG | 10200 fluorescence intensity (a.u.)
GCTGCGCACCTAATGCTACTGTTTTGTTAGTATTTATTTACGGAGTCACCTAGTGCAG | 8460 fluorescence intensity (a.u.)
ATTCTGGCTTTGCTGCTAGTCCCATCACAACTCTACTAGCCGGAGTCACCTAGTGCAG | 8610 fluorescence intensity (a.u.)
TGTATTAGGCACTCTCCATATCTCTTACCTCTCATCTTGGCGGAGTCACCTAGTGCAG | 10600 fluorescence intensity (a.u.)
CTCCGTTTCATATTTTAAGACTTTCTTGTATTGCCCAGTTCGGAGTCACCTAGTGCAG | 12900 fluorescence intensity (a.u.)
TCCCTGACCCCACCAGATCATACTCAGATATATACTCCCGCGGAGTCACCTAGTGCAG | 8320 fluorescence intensity (a.u.)
TTTCCGTCCGAATTTCTTGGTGAAACATGTTTTTCTTTCCCGGAGTCACCTAGTGCAG | 10800 fluorescence intensity (a.u.)
GCTCTAATTAATTCCGCACTTGTTAATTTTTGATCTGCTACGGAGTCACCTAGTGCAG | 12000 fluorescence intensity (a.u.)
TTGAAGTTTTTGGCAGGGGTTAGTTTCGAAATAAGTTTTCCGGAGTCACCTAGTGCAG | 8480 fluorescence intensity (a.u.)
AATTATGCGCGACCAAATTCTTTTTGCACTGGGCGGGGCCCGGAGTCACCTAGTGCAG | 10600 fluorescence intensity (a.u.)
TCCTTCCACCCTTGAGGGTTTTTGTTCGGTCTTATCCGCTCGGAGTCACCTAGTGCAG | 9760 fluorescence intensity (a.u.)
CTACAAATACCCACGTACTCTGCTGAGTTTTCGCACCTCTCGGAGTCACCTAGTGCAG | 9000 fluorescence intensity (a.u.)

For convenience, part of the list above.
Sequence | binding signal
CTTGCTTGATTTGCCTCGCCTGCCCTTTTTCTCGCGCGGCCGGAGTCACCTAGTGCAG | 9260 fluorescence intensity (a.u.)
TTCTCCTCGCGTTATCCTTCGCCTCCGCCGCGATGCTCTCCGGAGTCACCTAGTGCAG | 12200 fluorescence intensity (a.u.)
AGTAGCATTGCCCATTAGCACTAAGTACAATTAGTGAATTCGGAGTCACCTAGTGCAG | 8200 fluorescence intensity (a.u.)
GTTAAGGGGTATTTCTGTCTTTTTGCGTTGTACTCTTCTCCGGAGTCACCTAGTGCAG | 10500 fluorescence intensity (a.u.)
AAACCCAACATTGTAACCCTGCATTGCACATCACAGAAACCGGAGTCACCTAGTGCAG | 9520 fluorescence intensity (a.u.)

Continuation.

Sequence | binding signal
TTTTTTTGTGTTTTGCAATTTTATGTTTTGCACTTATTTTCGGAGTCACCTAGTGCAG | 8070 fluorescence intensity (a.u.)
TATTTTAATGTATGATGCCGTTGACTTTTTAACCAACGTTCGGAGTCACCTAGTGCAG | 27000 fluorescence intensity (a.u.)
TGTGTTAGCACGGTTTATCGTTTATACCCTTCACGAGTTGCGGAGTCACCTAGTGCAG | 8050 fluorescence intensity (a.u.)
ATAGCCAGTATCCTCACCTCACCCACAGCCCACCAATCACCGGAGTCACCTAGTGCAG | 9070 fluorescence intensity (a.u.)
ATCGCTTCTCTTCTTGAAGACGTCGTTTTGGCATCCCTTACGGAGTCACCTAGTGCAG | 8720 fluorescence intensity (a.u.)
TCTCGCTTGTTCTTCTTCACTTTCACTTTTAAAAACTTCCCGGAGTCACCTAGTGCAG | 8130 fluorescence intensity (a.u.)
ACACAGGGGAGGGGCGGCGATCTCCATTTGGCGAGGAGAGCGGAGTCACCTAGTGCAG | 8810 fluorescence intensity (a.u.)
GACACATGACATTCTTCTCTCTTCTCTTTCGTTTTTCTCCCGGAGTCACCTAGTGCAG | 15400 fluorescence intensity (a.u.)
CTCTTATTTTTGTGTATTATACACCTCTATTTTTTATATACGGAGTCACCTAGTGCAG | 8080 fluorescence intensity (a.u.)
CTTCCCGCCGCCGCCACTGCCACGAACAGTTCGCTCACCGCGGAGTCACCTAGTGCAG | 9980 fluorescence intensity (a.u.)
TTTTATGTTCGGTTTCTGTCGATTCTCAATTCCCGGTCTGCGGAGTCACCTAGTGCAG | 8490 fluorescence intensity (a.u.)
GACGACGCCATTCCTTATGTCCTATATAAAGGAGTCTAATCGGAGTCACCTAGTGCAG | 8120 fluorescence intensity (a.u.)
CGTAGGTAAGTAGGGTTATTATAGTTATTTGTGTATATATCGGAGTCACCTAGTGCAG | 9300 fluorescence intensity (a.u.)
GCCTTTTTCACCTTGTTGCCTAAATTAGCTCTCCCCGCTCCGGAGTCACCTAGTGCAG | 8080 fluorescence intensity (a.u.)
CTCTTTCCCTATCCATCATACAACTACATTTATCTTTCTCCGGAGTCACCTAGTGCAG | 8390 fluorescence intensity (a.u.)
CCACTCTTGTGCACGCCGCCGTATCTCACGCCCCTTCTTCCGGAGTCACCTAGTGCAG | 12300 fluorescence intensity (a.u.)
GGTTGGGAAAAAATTGGGGTTGGTTTATTCTTCTTGTTGTCGGAGTCACCTAGTGCAG | 15900 fluorescence intensity (a.u.)
TATTTCCAGCACTGAAGACCATTGAAATGTTCCCCGTCAACGGAGTCACCTAGTGCAG | 9090 fluorescence intensity (a.u.)
CGTCAATATCACCGATCACTTCCATTCGGCCATTTCCCACCGGAGTCACCTAGTGCAG | 8120 fluorescence intensity (a.u.)
GCGGGATCGCGCGGGCGGCGGCGGCGGCGGGGAGGGGATGCGGAGTCACCTAGTGCAG | 16900 fluorescence intensity (a.u.)
ATAGACTTATATCATTCCAATCGTTGTTACTAATATTTTTCGGAGTCACCTAGTGCAG | 9820 fluorescence intensity (a.u.)

Sequence | binding signal
TACTTTATGTGTGACTAACTTTTTTTAATTTTCTCATAAACGGAGTCACCTAGTGCAG | 8100 fluorescence intensity (a.u.)
TAAATGTTTAACGTTGTTGACTTTTTTAAACATGTTTGACCGGAGTCACCTAGTGCAG | 13500 fluorescence intensity (a.u.)
TATTCTAATTTGTTGTATCATATCCCATTCCGATCGTTTACGGAGTCACCTAGTGCAG | 9030 fluorescence intensity (a.u.)
GTTTATTTCACCGTCCAACTGTTATAAGCTGTTCTCATATCGGAGTCACCTAGTGCAG | 8070 fluorescence intensity (a.u.)
CCCCTCAAACTTTTATATTTGTGACTATTGGATCGCCTTGCGGAGTCACCTAGTGCAG | 8870 fluorescence intensity (a.u.)
TTTTTTCTAATCCTACGTTTTTCCATTCCTGCGATTCAAACGGAGTCACCTAGTGCAG | 8460 fluorescence intensity (a.u.)
TTGGATCTTTTTTAGTGCAATTCGATCGAGTTTTTTTTTACGGAGTCACCTAGTGCAG | 8410 fluorescence intensity (a.u.)
CCACAGCCCTACATCCCAAAACCTTGCGCCATTAGCTCGGCGGAGTCACCTAGTGCAG | 8210 fluorescence intensity (a.u.)
GATTTCTCTCTCTCTCTTCTTTTGCAGGGAACTTAATTACCGGAGTCACCTAGTGCAG | 12500 fluorescence intensity (a.u.)
CGGATAAACCTCATCATCTCATCATCTTCCCCGCCTTAATCGGAGTCACCTAGTGCAG | 9860 fluorescence intensity (a.u.)
AAGACGAACGGTCAAATATGTGCTAAAAAGTCAACGGTGTCGGAGTCACCTAGTGCAG | 9990 fluorescence intensity (a.u.)
GGCGAACCCTCCTCCCTCCGTTCCACACGCCCCAGTTCCCCGGAGTCACCTAGTGCAG | 9240 fluorescence intensity (a.u.)
AGGGGATCTGCGGCGGCGGCGGCGGCGGGGTGGTCGAGCGCGGAGTCACCTAGTGCAG | 9580 fluorescence intensity (a.u.)
ATTCTTTTGGTATTATAAACTCTGCATGGTATGTATAGGCCGGAGTCACCTAGTGCAG | 8220 fluorescence intensity (a.u.)
CTACTTGTGCTGTGTCTTTGTTTTTCTTTCACATTTCTAGCGGAGTCACCTAGTGCAG | 14300 fluorescence intensity (a.u.)
CACTTGCCGCCACTGCCTTTCGCTGTATTTTGTTGGGATCCGGAGTCACCTAGTGCAG | 12100 fluorescence intensity (a.u.)
CCCAAACCTTATCTCCTGGAGTAGTCACCTCCACGAACCCCGGAGTCACCTAGTGCAG | 8040 fluorescence intensity (a.u.)
TTGCCGTCGCCTCAACCACACCGACCAGCGTCACATCCAGCGGAGTCACCTAGTGCAG | 8940 fluorescence intensity (a.u.)
GCTCTATCTTTACTCGCCATTTAATCGTTGCCTCGCGCTCCGGAGTCACCTAGTGCAG | 16900 fluorescence intensity (a.u.)
ATCTACCACTATTTGAGATCATTTGGTTACGAAATCTTTTCGGAGTCACCTAGTGCAG | 8170 fluorescence intensity (a.u.)
CACAGACTTCCTTGTTGATTCAAACAATACCGCACTTTCGCGGAGTCACCTAGTGCAG | 8530 fluorescence intensity (a.u.)
